According to PMC11199599:
No constants are given. Whether binding was seen depends on the method and setting. Where a sequence is shown, tags or fusion partners need not be part of it.

Amino acid sequences for entries named in this document (tags omitted).
UniProt P12004: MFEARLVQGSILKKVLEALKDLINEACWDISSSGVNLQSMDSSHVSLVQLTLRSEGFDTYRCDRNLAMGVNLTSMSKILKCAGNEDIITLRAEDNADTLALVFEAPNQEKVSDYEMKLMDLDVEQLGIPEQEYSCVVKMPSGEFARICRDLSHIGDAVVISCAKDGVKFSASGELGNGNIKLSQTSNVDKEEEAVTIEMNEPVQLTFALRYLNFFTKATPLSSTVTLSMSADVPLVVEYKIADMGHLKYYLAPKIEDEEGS

Target: T1, GST-tagged SNM1A peptide spanning the PBZ and UBZ motifs (GST-PBZ-UBZ) (human)
T1 sequence: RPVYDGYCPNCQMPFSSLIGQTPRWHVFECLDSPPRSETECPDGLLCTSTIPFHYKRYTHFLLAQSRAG
Experiment: pull-down; GST-SNM1A peptides held on glutathione-agarose beads, washed with PBS with 250 mM to 1 M salt; 150 ng purified PCNA or PCNA^ub added, tumbled at 4 °C for 1 h, washed as before; immunoblot for PCNA, PCNA^ub, GST; both purified

binding: no binding (tested: 150 ng)
Substance: Human PCNA (from UniProt P12004 1-261)
